Results taken from patent US7320995B2, “Benzimidazoles and benzothiazoles as inhibitors of map kinase” (Eli Lilly and Company, priority 2002, dated 2008).
For some assays here: For at least one compound, name, drawing or mass did not settle the structure. Some of these results come from one statement about several compounds together.

What was measured:
[1] = tested on: MAPKAP-K2 phosphorylation in P815 tumors; experiment: In vivo target inhibition study in P815 mastocytoma model; parameters: species or system DBA/2 mice
Experimental: In vivo target inhibition is determined by measuring the effect of inhibitor treatment on the phosphorylation of MAPKAP-K2 expressed in P815 tumor tissues. Tumors in DBA/2 mice received P815 cells subcutaneous implantation are allowed to grow to a size of 300-500 mg without treatment. Tumor bearing mice are then given oral administration of Example 77 (free base) or vehicle. To investigate time course related target inhibition by Example 77 (free base), tumors are harvested from CO2 sacrificed animals at the indicated times (3 hours, 6 hours, 12 hours, and 18 hours) after compound is dosed at 30 mg/kg. Dose-dependent target inhibition by Example 77 (free base) is investigated by harvesting tumors at 3 hours after orally given different doses of Example 77 (free base) or vehicle. Harvested tumors are immediately snap frozen onto dry ice, pulverized, homogenized and lysed in cooled lysis buffer containing proteinase and phosphatase inhibitors. After centrifugation to remove cell debris, supernatants containing 100 microgram total proteins are resuspended in 2×Tris-Glycin loading buffer and subjected to sodium dodecyl sulfate-polyacrylamide gel electrophoresis (10% Tris-Glycine) under reducing conditions. Proteins are subsequently blotted onto a PDVF membrane and were then blocked in 5% milk PBS containing 0.1% Tween-20 for 1 hour at room temperature. The membrane is then incubated with primary antibody (anti-phospho-MAPKAP-K2, Cell Signaling) at 4° C. overnight followed by incubation with secondary antibody (anti-rabbit HRP-conjugated IgG) at room temperature 1 hour. Phospho-MAPKAP-K2 expression level is visualized by Phospho-Image detection system after the enhanced chemiluminescence (ECL) detection is used to reflect the presence of proteins on the PVDF blots. Expression level of phospho-p38 MAP kinase and total p-38 MAP kinase is also monitored by similar western blotting procedure.

[2] = tested on: TNF-α; experiment: Effect on intra-articular LPS induced TNF-α (synovial lavage fluid, ELISA); format: in vivo, female Lewis rats; conditions: 1, 3, 10 and 30 mg/kg orally
Experimental: Intra-articular injection of LPS into rat […] induces the synthesis of TNF-α, which can be measured in synovial lavage fluid. High levels of TNF-α are detectable within 2 hours. Since the joint is the site where arthritis develops, this model can rapidly determine whether an orally administered compound has an effect on an inflammatory response in the synovium.
Six female Lewis rats (150-200 g) are place in each treatment group. The animals are given vehicle (1% NaCarboxymethylcellulose-0.25% Tween 80) or Example 77 (free base) (1 mg/kg, 3 mg/kg, 10 mg/kg, and 30 mg/kg) orally. One hour later, 10 μl LPS (10 μg) is administered intra-articulately into the right ankle of each rat, while the left ankle receives 10 μL of saline. After two hours, each […] is laved with 100 μL of saline. The lavage is collected and stored at −80° C. • Group#1: Vehicle (1% NaCMC-0.25% Tween 80, 1 mL, PO) • Group#2: Example 77 (free base) (1 mg/kg, 1 mLl, PO) • Group#3: Example 77 (free base) (3 mg/kg, 1 mL, PO) • Group#4: Example 77 (free base) (10 mg/kg, 1 mL, PO) • Group#5: Example 77 (free base) (30 mg/kg, 1 mL, PO)
TNF-α was measured with a commercially available ELISA kit (R&D, RTA00). […] The TMED50=10 mg/kg for Example 77 in this assay.

[3] = tested on: P815 tumors; experiment: Inhibition of P815 tumor growth in vivo; parameters: species or system DBA/2 mice; conditions: oral tid doses between 0.1 and 30 mg/kg
Experimental: Female(6-8 weeks old) DBA/2 mice (Taconic) are implanted subcutaneously into the hind flank region on day 0 with P815 cells (0.5×10^6 cells in 200 ul of RPMI 1640). P815 tumor cells are purchased from ATCC and are cultured in RPMI 1640 medium, supplemented with glutamine and 10% bovine serum at 37° C. in 5% CO2 cell culture incubator. Tumor-bearing animals are treated with oral administration of Example 77 (free base), at different doses or vehicle with frequency of three times a day started on the day of implantation. Tumor growth is monitored every 2 days by measuring perpendicular diameters. Tumor volume expressed in milligram (mg) is determined as the product of the largest diameter (a) and its perpendicular (b) according to the formula [tumor volume=a×b^2×0.536].

[4] = Rat collagen induced arthritis efficacy model; format: in vivo, female Lewis rats
Experimental: Female Lewis rats ((≅190 gm, Charles River Labs) are immunized with Bovine type II collagen (2 mg/ml) emulsified with an equal volume of adjuvant (aluminum hydroxide). […]. The rats are immunized with approximately […] of the emulsion intradermally on the back near the base of the tail. All animals are re-immunized 7 days later according to the same protocol. The rats begin to develop arthritis (characterized by swelling and redness of one or both ankles) from 12 to 14 days after the first immunization. The rats are equally distributed into five treatment groups at the first signs of arthritis and treatment is initiated with each rat dosed bid for 14 days.
• Group 1 Vehicle (1% NaCarboxymethylcellulose+0.25% Tween 80) 1 mL, PO, Bid×14 days • Group 2 Example 77 (free base), 5 mg/kg, 1 mL, PO, Bid×14 • Group 3 Example 77 (free base), 15 mg/kg, 1 mL, PO, Bid×14 • Group 4 Example 77 (free base), 30 mg/kg, 1 mL, PO, Bid×14 • Group 5 Prednisolone 10 mg/kg, 1 mL, PO, qd×14
Ankle diameter is measured with calipers 5 days a week and recorded. Data is expressed as the area under the curve (AUC) generated from the composite inflammation scores and statistical analysis performed.
At the termination of the study, animals were sacrificed and ankles processed for histological evaluation. The histology score is based on a 0-5 scale for each of 4 parameters Inflammation, pannus, cartilage damage, bone resorption).

[5] = tested on: TNF-α; experiment: Inhibition of TNF-α in vivo (LPS challenge), serum TNF-α by Luminex; parameters: species or system female Balb/c mice; conditions: p.o., LPS i.v. after 2 hours, serum one hour after LPS

CC(C)S(=O)(=O)n1c(N)nc2ccc(-c3nc(-c4c(F)cccc4F)[nH]c3-c3ccccc3)cc21 [Example 77, 1-isopropylsulfonyl-2-amino-6-(2-(2,6-difluorophenyl)-5-(phenyl)-imidazol-4-yl)-benzimidazole]
inhibition of MAPKAP-K2 phosphorylation, dose response ([1]; 3, 10 and 30 mg/kg, tumors harvested 3 hours after dosing): significant dose-dependent inhibition
inhibition of MAPKAP-K2 phosphorylation, time course ([1]; single oral dose 30 mg/kg): time-dependent inhibition
phosphorylation of MAPKAP-K2 at 18 hours after dosing ([1]; single oral dose 30 mg/kg): recovered completely
inhibition of TNF-α synthesis, as measured in the synovial lavage fluid [2]: dose-dependent inhibition
inhibition of P815 tumor growth [3]: dose-dependent inhibition
reduction in overall joint scores ([4]; 15 mg/kg PO bid x 14 days): Significant reduction
reduction in overall joint scores ([4]; 30 mg/kg PO bid x 14 days): Significant reduction
inhibition of joint pathology (histology score) ([4]; 5, 15, 30 mg/kg PO bid x 14 days): dose dependent inhibition
reduction in ankle diameter ([4]; all doses (5, 15, 30 mg/kg PO bid x 14 days)): significant reduction

CC(C)S(=O)(=O)n1c(N)nc2ccc(-c3nc(-c4cccs4)[nH]c3-c3ccccc3)cc21.CS(=O)(=O)O [Example 1, 1-isopropylsulfonyl-2-amino-6-(2-(thien-2-yl)-5-(phenyl)-imidazol-4-yl)-benzimidazole methanesulfonate]
IC50, suppression of TNF-α in vivo [5]: less than 100 mg/kg

CC(C)S(=O)(=O)n1c(N)nc2ccc(-c3nc(-c4ccncc4)[nH]c3-c3ccccc3)cc21 [Example 16, 1-isopropylsulfonyl-2-amino-6-(2-(pyridin-4-yl)-5-(phenyl)-imidazol-4-yl)-benzimidazole]
IC50, suppression of TNF-α in vivo [5]: less than 100 mg/kg
